# Results deposited as PubChem BioAssay AID1224828 (NIAID, 2016)
# Aim: 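Regulators linking TLR4 signalling to p65 nuclear translocation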 (primary screen)
# System: mouse RAW264.7 G9 macrophage reporter cells (GFP-p65, Tnf promoter-mCherry)
# Reagent: siRNA pool against mouse genes, 100 nM
# Timing: 2 days siRNA transfection, then 40 min LPS before fixation
# Conditions: LPS (Salmonella minnesota R595) at 10 ng/ml
# Measurement: 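Microscopy ratio of nuclear to perinuclear-ring GFP-p65 signal, scaled to the plate median; gene score is the average of two replicate robust z-scores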
# Reading the numbers: p65 translocation robust z-score: higher = more nuclear NF-kappaB p65 after LPS than the plate median; nuclear/cytoplasmic p65 ratio: higher = more nuclear NF-kappaB p65
# Call rule: 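Called active when z exceeds 3.3 or falls under -1.56 (median of Tlr4 controls), giving activity score of at least 50; no calls for control wells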
# Meaning of the calls: active = hit (p65 shift raised or lowered); inactive = no clear change
# The whole screen tested about 17,000 reagents; shown is a part drawn at random. 762 of all reagents (4.5%) count as active. 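Active calls include both raised and lowered p65 entry, mostly lowered; wells with fewer than 50 cells lack a z-score.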 The raw values are shown without normalisation. The numbers tell different reagents against one gene apart.
The first 7 entries as a preview:
gene knocked down,reagent,p65 translocation robust z-score,"nuclear/cytoplasmic p65 ratio, rep 1","nuclear/cytoplasmic p65 ratio, rep 2",low cell count flag,outcome
Oog4,1,2.65,1.8,1.26,enough cells to score,inactive
Or8d2,1,-0.61,1.33,1.2,enough cells to score,inactive
Ark2n,1,-0.33,1.46,1.42,enough cells to score,inactive
Cfdp1,1,1.09,1.72,2,enough cells to score,inactive
Eef1akmt1,1,-0.68,1.33,1.35,enough cells to score,inactive
Cpap,1,-0.42,1.54,1.56,enough cells to score,inactive
Eef1e1,1,,1.4,1.33,fewer than 50 cells per well; well left out of scoring,inactive

Results, repeating the preview:
gene knocked down,reagent,p65 translocation robust z-score,"nuclear/cytoplasmic p65 ratio, rep 1","nuclear/cytoplasmic p65 ratio, rep 2",low cell count flag,outcome
Oog4,1,2.65,1.8,1.26,enough cells to score,inactive
Or8d2,1,-0.61,1.33,1.2,enough cells to score,inactive
Ark2n,1,-0.33,1.46,1.42,enough cells to score,inactive
Cfdp1,1,1.09,1.72,2,enough cells to score,inactive
Eef1akmt1,1,-0.68,1.33,1.35,enough cells to score,inactive
Cpap,1,-0.42,1.54,1.56,enough cells to score,inactive
Eef1e1,1,,1.4,1.33,fewer than 50 cells per well; well left out of scoring,inactive
Pdgfd,1,,1.15,0.985,fewer than 50 cells per well; well left out of scoring,inactive
Cbr2,1,0.45,1.69,1.82,enough cells to score,inactive
Prmt7,1,-0.35,1.54,1.77,enough cells to score,inactive
Scamp2,1,0.22,1.46,1.23,enough cells to score,inactive
1700102P08Rik,1,,1.24,1.47,fewer than 50 cells per well; well left out of scoring,inactive
Jsrp1,1,,1.34,1.67,fewer than 50 cells per well; well left out of scoring,inactive
Prlhr,1,0.56,1.62,1.63,enough cells to score,inactive
Vps13b,1,1.62,1.68,1.72,enough cells to score,inactive
Mrm3,1,,1.35,1.04,fewer than 50 cells per well; well left out of scoring,inactive
Spata33,1,2.07,1.53,1.43,enough cells to score,inactive
Il36rn,1,-0.11,1.43,1.39,enough cells to score,inactive
Lyar,1,-1.86,1.54,1.18,enough cells to score,active
Psmg1,1,-1.14,1.24,1.29,enough cells to score,inactive
Mrap,1,1.41,1.63,1.75,enough cells to score,inactive
Crlf3,1,-1.02,1.32,1.26,enough cells to score,inactive
Tas2r123,1,1.39,1.16,1.34,enough cells to score,inactive
Adrb1,1,,1.72,1.6,fewer than 50 cells per well; well left out of scoring,inactive
Aoc1,1,0.71,1.79,1.65,enough cells to score,inactive
Baz2a,1,1.08,1.71,2.06,enough cells to score,inactive
Cep290,1,-0.2,1.59,1.76,enough cells to score,inactive
Or1o2,1,0.95,1.53,1.38,enough cells to score,inactive
Zbtb7b,1,-0.98,1.45,1.3,enough cells to score,inactive
Fblim1,1,-0.46,1.45,1.4,enough cells to score,inactive
Sash1,1,0.19,1.42,1.49,enough cells to score,inactive
Zbtb25,1,0.4,1.59,1.54,enough cells to score,inactive
Gabrq,1,1.05,1.6,1.48,enough cells to score,inactive
Emc8,1,-1.55,1.5,1.28,enough cells to score,inactive
Cd2bp2,1,0.74,1.7,1.35,enough cells to score,inactive
Or5bw2,1,,1.67,1.48,fewer than 50 cells per well; well left out of scoring,inactive
Col5a1,1,-0.47,1.39,1.33,enough cells to score,inactive
Vps37b,1,-0.88,1.42,1.72,enough cells to score,inactive
Atp23,1,2.95,1.58,1.8,enough cells to score,inactive
Csf3,1,-0.08,1.17,1.35,enough cells to score,inactive
Rnft1,1,-0.79,1.36,1.41,enough cells to score,inactive
Pex2,1,-0.82,1.44,1.36,enough cells to score,inactive
Tmem202,1,,1.49,1.54,fewer than 50 cells per well; well left out of scoring,inactive
Gda,1,-0.15,1.6,1.42,enough cells to score,inactive
Treml4,1,-0.33,1.33,1.4,enough cells to score,inactive
Ap1g1,1,-0.01,1.47,1.82,enough cells to score,inactive
Nalf1,1,1.82,1.8,1.81,enough cells to score,inactive
Slc19a1,1,0.05,1.74,1.26,enough cells to score,inactive
Metrnl,1,0.79,1.68,1.99,enough cells to score,inactive
Zfp40,1,0.05,1.32,1.34,enough cells to score,inactive
Il9r,1,0.71,1.59,1.45,enough cells to score,inactive
Ap1s3,1,0.68,1.64,1.86,enough cells to score,inactive
Orai3,1,-0.48,1.44,1.46,enough cells to score,inactive
Crip2,1,0.71,1.67,1.91,enough cells to score,inactive
Hnrnpll,1,,1.35,1.48,fewer than 50 cells per well; well left out of scoring,inactive
Wrap53,1,-1.17,1.44,1.61,enough cells to score,inactive
Prb1b,1,-0.69,1.24,1.18,enough cells to score,inactive
Prb1b,2,-0.94,1.32,1.5,enough cells to score,inactive
Or10ak11,1,2.97,2,1.86,enough cells to score,inactive
